Some results were stated once for a whole list of compounds, not compound by compound.
Test: Enzyme linked immunoassay of receptor.Fc fusions on immobilized GLPS-F3
Format: binding, Ganoderma lucidum
Details: GLPS-F3 100 ng/well; receptor.Fc 1 μg/ml; OD 450 nm
Protocol: The interactions of polysaccharides with receptor.Fc fusion proteins was further investigated by performing an enzyme-linked immunoassay, which was based on immobilizing GLPS-F3 through both hydrophilic and hydrophobic forces onto microtiter plates (polysytrene). In this format, the number of different receptor.Fc fusions for profiling was increased in comparison to Example 7. To optimize the quantity of GLPS-F3 for immobilization, various amounts (3-1000 ng/well, diluted in 100 mM Tris buffer, pH9.5) of biotinylated-GLPS-F3 (Biotin-GLPS-F3) were coated onto MaxiSorp StarWell microtiter plates (50 μL/well; Nunc). The plates were incubated overnight at 4° C., and then the wells were washed twice with TBST, followed by blocking with 200 μL blocking buffer (2% BSA/TBST) for 1 hour at room temperature. Peroxidase-conjugated avidin (1:5000 dilution, Vector Laboratories) and TMB (tetramethylbenzidine) substrate was then used for detection of immobilized biotinylated GLPS-F3.
The interaction between GLPS-F3 and receptor.Fc was then tested. […] Wells were incubated with 100 μL TMB substrate for 15 min after TBST washing and read at 450 nm in a Fusion plate reader (Perkin Elmer). […]

B1: Fc.DC-SIGN: DC-SIGN (CLEC4L) extracellular domain fused to human IgG1 Fc (protein)
chain: QVSKVPSSISQEQSRQDAIYQNLTQLKAAVGELSEKSKLQEIYQELTQLKAAVGELPEKSKLQEIYQELTRLKAAVGELPEKSKLQEIYQELTWLKAAVGELPEKSKMQEIYQELTRLKAAVGELPEKSKQQEIYQELTRLKAAVGELPEKSKQQEIYQELTRLKAAVGELPEKSKQQEIYQELTQLKAAVERLCHPCPWEWTFFQGNCYFMSNSQRNWHDSITACKEVGAQLVVIKSAEEQNFLQLQSSRSNRFTWMGLSDLNQEGTWQWVDGSPLLPSFKQYWNRGEPNNVGEEDCAEFSGNGWNDDKCNLAKFWICKKSAASCSRDEEQFLSPAPATPNPPPA
modifications: left off: a dimerising Fc or GST
binding intensity to GLPS-F3 compared to Fc.Dectin-1: > 50%

Reference: patent US8460669B2, “Compositions and methods for identifying response targets and treating flavivirus infection responses” (Academia Sinica, priority 2005, dated 2013)
